Reference: publication PMC11784460
No constants are given. Whether binding was seen depends on the method and setting. Binding seen in cells or lysates may run through a third protein. Some binding calls cover weakened binding; strength is not graded here. For some of these results: Where a sequence is shown, tags or fusion partners need not be part of it. One block for each molecule: values may come before it.

Protein sequences, listed by entry. Tags and fused reporters are not part of them.
UniProt A5A8Y3: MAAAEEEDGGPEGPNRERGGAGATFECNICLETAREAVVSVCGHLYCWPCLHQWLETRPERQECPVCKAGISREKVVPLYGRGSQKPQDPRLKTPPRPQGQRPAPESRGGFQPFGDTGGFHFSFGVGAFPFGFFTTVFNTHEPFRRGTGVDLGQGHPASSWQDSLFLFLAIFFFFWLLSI
UniProt Q99942: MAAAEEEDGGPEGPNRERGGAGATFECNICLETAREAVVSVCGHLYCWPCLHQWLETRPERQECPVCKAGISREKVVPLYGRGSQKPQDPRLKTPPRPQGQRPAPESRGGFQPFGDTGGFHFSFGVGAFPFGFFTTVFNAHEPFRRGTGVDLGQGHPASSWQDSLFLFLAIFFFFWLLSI

What was measured:
[1] = molecular target: endogenous sRNF5 (Sus scrofa (endogenous in PK15)) (UniProt A5A8Y3); assay: co-IP; endogenous proteins in PK15 lysate; mouse monoclonal RNF5 antibody on Protein A+G magnetic beads as bait antibody, normal mouse IgG as negative control
sRNF5-YN (Sus scrofa) = sRNF5-YN (Sus scrofa) (UniProt A5A8Y3); assay: split reporter; BiFC with YN (aa 1-155 of YFP) and YC (aa 156-239 of YFP) fusions in living PK15 cells, 24 h after transfection, confocal microscopy
[2] = molecular target: Flag-sRNF5 (Sus scrofa RING finger protein 5) (Sus scrofa) (UniProt A5A8Y3); assay: co-IP; PK15 cells cotransfected 24 h; lysate (20 mM Tris pH 7.4, 150 mM NaCl, 1% Triton X-100, 1% sodium deoxycholate) immunoprecipitated with Flag M2 on Protein A+G magnetic beads, 4°C, 12 h; blot anti-Flag and anti-GFP
[3] = molecular target: Flag-hRNF5 (Homo sapiens RING finger protein 5) (Homo sapiens) (UniProt Q99942); assay: co-IP

- binding [1]: binds
Molecule: endogenous sABHD16A (from UniProt A0A287AWB5 1-558)

- binding [3]: binds
B1: hABHD16A-EGFP (Homo sapiens alpha/beta-hydrolase domain-containing 16A) (protein, UniProt O95870 1-558)
chain: MAKLLSCVLGPRLYKIYRERDSERAPASVPETPTAVTAPHSSSWDTYYQPRALEKHADSILALASVFWSISYYSSPFAFFYLYRKGYLSLSKVVPFSHYAGTLLLLLAGVACLRGIGRWTNPQYRQFITILEATHRNQSSENKRQLANYNFDFRSWPVDFHWEEPSSRKESRGGPSRRGVALLRPEPLHRGTADTLLNRVKKLPCQITSYLVAHTLGRRMLYPGSVYLLQKALMPVLLQGQARLVEECNGRRAKLLACDGNEIDTMFVDRRGTAEPQGQKLVICCEGNAGFYEVGCVSTPLEAGYSVLGWNHPGFAGSTGVPFPQNEANAMDVVVQFAIHRLGFQPQDIIIYAWSIGGFTATWAAMSYPDVSAMILDASFDDLVPLALKVMPDSWRGLVTRTVRQHLNLNNAEQLCRYQGPVLLIRRTKDEIITTTVPEDIMSNRGNDLLLKLLQHRYPRVMAEEGLRVVRQWLEASSQLEEASIYSRWEVEEDWCLSVLRSYQAEHGPDFPWSVGEDMSADGRRQLALFLARKHLHNFEATHCTPLPAQNFQMPWHL

Second part, the molecule before the results:

Molecule: sABHD16A-YC (from UniProt A0A287AWB5 1-558)
- binding (sRNF5-YN (Sus scrofa)): binds

Molecule: sABHD16A-EGFP (Sus scrofa alpha/beta-hydrolase domain-containing 16A) (from UniProt A0A287AWB5 1-558)
- binding [2]: binds
